Among the data in paper PMC7032568 are binding values, retold here.

Sequences of proteins named here, by UniProt entry; tags and fusion partners are left off.
UniProt P28340: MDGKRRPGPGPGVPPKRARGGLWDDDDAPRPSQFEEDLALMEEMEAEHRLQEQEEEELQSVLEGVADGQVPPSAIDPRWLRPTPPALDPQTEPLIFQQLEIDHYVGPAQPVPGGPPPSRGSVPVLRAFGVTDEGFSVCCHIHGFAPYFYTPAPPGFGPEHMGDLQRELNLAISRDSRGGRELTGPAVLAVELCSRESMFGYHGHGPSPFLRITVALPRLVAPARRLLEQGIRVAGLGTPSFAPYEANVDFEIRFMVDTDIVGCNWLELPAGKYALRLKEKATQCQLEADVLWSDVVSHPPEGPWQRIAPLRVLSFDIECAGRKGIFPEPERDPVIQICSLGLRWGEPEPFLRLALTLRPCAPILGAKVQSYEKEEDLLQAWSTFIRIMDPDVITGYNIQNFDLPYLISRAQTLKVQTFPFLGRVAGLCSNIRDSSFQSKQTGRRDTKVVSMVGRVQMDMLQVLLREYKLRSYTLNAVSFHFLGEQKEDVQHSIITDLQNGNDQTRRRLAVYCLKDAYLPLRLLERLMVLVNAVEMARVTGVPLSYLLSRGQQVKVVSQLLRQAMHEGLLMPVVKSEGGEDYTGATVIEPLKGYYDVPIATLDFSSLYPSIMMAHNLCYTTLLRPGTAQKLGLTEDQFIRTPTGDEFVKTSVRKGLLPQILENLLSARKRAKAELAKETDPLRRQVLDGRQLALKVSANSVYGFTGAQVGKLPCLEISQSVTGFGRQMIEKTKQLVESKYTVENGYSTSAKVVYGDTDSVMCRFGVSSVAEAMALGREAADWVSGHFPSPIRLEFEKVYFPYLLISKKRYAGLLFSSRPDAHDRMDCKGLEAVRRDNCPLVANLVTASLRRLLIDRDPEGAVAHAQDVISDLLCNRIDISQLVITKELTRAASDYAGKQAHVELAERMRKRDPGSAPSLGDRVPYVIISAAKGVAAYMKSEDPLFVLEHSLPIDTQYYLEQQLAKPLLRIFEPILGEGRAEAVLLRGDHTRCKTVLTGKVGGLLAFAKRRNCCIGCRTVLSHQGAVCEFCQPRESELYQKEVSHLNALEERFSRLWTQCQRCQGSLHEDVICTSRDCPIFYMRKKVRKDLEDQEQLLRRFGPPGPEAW

These are yes or no findings as the source states them, for the method shown. In cells and extracts the contact can be indirect. Some results given as binding are weak or reduced against the parent protein; the word gives no strength. Tags and fused reporters may be left off the sequences shown.

Assay [1] addresses T1, Flag-tagged DDX11 (wild type) (human) (UniProt Q96FC9).
T1 sequence: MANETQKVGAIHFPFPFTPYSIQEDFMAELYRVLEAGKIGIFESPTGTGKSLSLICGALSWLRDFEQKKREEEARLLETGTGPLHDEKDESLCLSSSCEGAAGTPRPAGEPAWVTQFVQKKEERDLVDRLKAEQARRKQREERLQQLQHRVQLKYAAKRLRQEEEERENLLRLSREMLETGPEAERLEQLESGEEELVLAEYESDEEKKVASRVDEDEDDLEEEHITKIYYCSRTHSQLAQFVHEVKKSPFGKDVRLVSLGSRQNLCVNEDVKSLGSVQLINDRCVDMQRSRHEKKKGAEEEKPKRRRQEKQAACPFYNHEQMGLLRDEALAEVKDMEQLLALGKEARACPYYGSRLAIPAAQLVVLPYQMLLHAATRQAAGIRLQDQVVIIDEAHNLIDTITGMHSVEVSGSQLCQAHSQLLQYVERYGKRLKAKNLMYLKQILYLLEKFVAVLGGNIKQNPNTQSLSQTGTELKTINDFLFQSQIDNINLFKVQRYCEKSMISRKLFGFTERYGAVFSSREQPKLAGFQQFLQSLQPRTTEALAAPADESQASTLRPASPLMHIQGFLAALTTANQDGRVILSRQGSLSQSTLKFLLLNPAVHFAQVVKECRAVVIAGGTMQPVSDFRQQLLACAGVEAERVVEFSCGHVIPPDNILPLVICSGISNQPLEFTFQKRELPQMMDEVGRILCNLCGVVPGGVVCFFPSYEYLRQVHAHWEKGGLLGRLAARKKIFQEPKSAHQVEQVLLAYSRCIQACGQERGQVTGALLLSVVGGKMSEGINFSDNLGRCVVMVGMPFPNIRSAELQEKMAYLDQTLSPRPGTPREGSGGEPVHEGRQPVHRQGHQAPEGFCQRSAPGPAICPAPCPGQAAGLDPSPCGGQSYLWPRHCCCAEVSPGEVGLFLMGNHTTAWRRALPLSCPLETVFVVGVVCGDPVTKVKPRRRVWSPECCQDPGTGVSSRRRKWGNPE
Put plainly: co-IP; Flag-tagged protein captured overnight on ANTI-FLAG M2 Affinity beads from 293T whole cell lysates (150 mM NaCl, 0.1% NP-40, treated with benzonase); beads washed three times with lysis buffer; Western blot. (In general: A western blot detects proteins with antibodies after separation by electrophoresis.)

Assay [2] has as its target T2, Flag-tagged DDX11 R263Q (WABS variant) (human) (UniProt Q96FC9).
T2 sequence: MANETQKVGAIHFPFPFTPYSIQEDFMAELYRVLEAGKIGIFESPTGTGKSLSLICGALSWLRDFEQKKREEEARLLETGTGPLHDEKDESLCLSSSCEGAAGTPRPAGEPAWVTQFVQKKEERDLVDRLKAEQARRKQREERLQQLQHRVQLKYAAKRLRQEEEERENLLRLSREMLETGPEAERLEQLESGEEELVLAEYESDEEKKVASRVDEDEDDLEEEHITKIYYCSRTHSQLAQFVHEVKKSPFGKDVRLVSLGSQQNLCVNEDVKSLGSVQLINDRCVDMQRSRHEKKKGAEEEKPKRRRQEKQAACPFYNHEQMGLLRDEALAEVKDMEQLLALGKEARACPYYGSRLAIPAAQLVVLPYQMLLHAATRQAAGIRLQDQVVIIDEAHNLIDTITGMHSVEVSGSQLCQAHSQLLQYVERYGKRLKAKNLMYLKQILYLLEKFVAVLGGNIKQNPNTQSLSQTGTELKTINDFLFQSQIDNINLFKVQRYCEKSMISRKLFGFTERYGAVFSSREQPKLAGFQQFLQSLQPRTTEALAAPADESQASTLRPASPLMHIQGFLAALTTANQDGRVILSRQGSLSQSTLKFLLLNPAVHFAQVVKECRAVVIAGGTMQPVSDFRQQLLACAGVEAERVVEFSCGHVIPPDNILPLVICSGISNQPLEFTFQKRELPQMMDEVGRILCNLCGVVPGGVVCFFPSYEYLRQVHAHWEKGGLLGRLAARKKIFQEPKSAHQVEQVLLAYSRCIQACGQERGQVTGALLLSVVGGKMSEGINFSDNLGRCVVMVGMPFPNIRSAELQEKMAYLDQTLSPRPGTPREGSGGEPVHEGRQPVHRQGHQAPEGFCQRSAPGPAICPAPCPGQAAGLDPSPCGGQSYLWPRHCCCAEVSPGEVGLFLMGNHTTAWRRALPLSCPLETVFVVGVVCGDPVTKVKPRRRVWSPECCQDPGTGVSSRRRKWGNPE
Described as above.

In the case of “untagged POLD1 (from UniProt P28340 1-1107)”, the binding result in assay [1] and in assay [2] was “binds” in each case.

B1: myc-tagged WDHD1 (protein, UniProt O75717 1-1129)
chain: MPATRKPMRYGHTEGHTEVCFDDSGSFIVTCGSDGDVRIWEDLDDDDPKFINVGEKAYSCALKSGKLVTAVSNNTIQVHTFPEGVPDGILTRFTTNANHVVFNGDGTKIAAGSSDFLVKIVDVMDSSQQKTFRGHDAPVLSLSFDPKDIFLASASCDGSVRVWQISDQTCAISWPLLQKCNDVINAKSICRLAWQPKSGKLLAIPVEKSVKLYRRESWSHQFDLSDNFISQTLNIVTWSPCGQYLAAGSINGLIIVWNVETKDCMERVKHEKGYAICGLAWHPTCGRISYTDAEGNLGLLENVCDPSGKTSSSKVSSRVEKDYNDLFDGDDMSNAGDFLNDNAVEIPSFSKGIINDDEDDEDLMMASGRPRQRSHILEDDENSVDISMLKTGSSLLKEEEEDGQEGSIHNLPLVTSQRPFYDGPMPTPRQKPFQSGSTPLHLTHRFMVWNSIGIIRCYNDEQDNAIDVEFHDTSIHHATHLSNTLNYTIADLSHEAILLACESTDELASKLHCLHFSSWDSSKEWIIDLPQNEDIEAICLGQGWAAAATSALLLRLFTIGGVQKEVFSLAGPVVSMAGHGEQLFIVYHRGTGFDGDQCLGVQLLELGKKKKQILHGDPLPLTRKSYLAWIGFSAEGTPCYVDSEGIVRMLNRGLGNTWTPICNTREHCKGKSDHYWVVGIHENPQQLRCIPCKGSRFPPTLPRPAVAILSFKLPYCQIATEKGQMEEQFWRSVIFHNHLDYLAKNGYEYEESTKNQATKEQQELLMKMLALSCKLEREFRCVELADLMTQNAVNLAIKYASRSRKLILAQKLSELAVEKAAELTATQVEEEEEEEDFRKKLNAGYSNTATEWSQPRFRNQVEEDAEDSGEADDEEKPEIHKPGQNSFSKSTNSSDVSAKSGAVTFSSQGRVNPFKVSASSKEPAMSMNSARSTNILDNMGKSSKKSTALSRTTNNEKSPIIKPLIPKPKPKQASAASYFQKRNSQTNKTEEVKEENLKNVLSETPAICPPQNTENQRPKTGFQMWLEENRSNILSDNPDFSDEADIIKEGMIRFRVLSTEERKVWANKAKGETASEGTEAKKRKRVVDESDETENQEEKAKENLNLSKKQKPLDFSTNQKLSAFAFKQE
With B1, the binding entry in assay [1] and in assay [2] was “binds” in each case.
